From publication PMC7819943, “Rice protein-binding microarrays: a tool to detect cis-acting elements near promoter regions in rice”
Some of the results follow.

Protein sequences, listed by entry. Tags and fused reporters are not part of them.
UniProt Q0JBA9, entry or part of it: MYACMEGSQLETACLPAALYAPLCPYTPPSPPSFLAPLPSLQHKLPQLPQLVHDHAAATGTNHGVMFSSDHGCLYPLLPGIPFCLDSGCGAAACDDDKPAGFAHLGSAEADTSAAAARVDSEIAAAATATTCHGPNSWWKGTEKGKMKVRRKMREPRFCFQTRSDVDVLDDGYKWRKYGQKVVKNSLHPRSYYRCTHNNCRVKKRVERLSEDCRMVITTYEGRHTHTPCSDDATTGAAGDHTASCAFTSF

What follows are sequences tested against OsWRKY34 (Oryza sativa, UniProt Q0JBA9 1-250) (assay: protein-binding microarray (RPBM); PBS, 2% BSA, 51.3 ng/ul salmon testes DNA, 50 uM zinc acetate, 200 nM TF, 25 C, 1 h; high values mean tight binding). Conditions: protein: recombinant; tags: N-terminal polyhistidine and DsRed monomer fusion (pET32a); label: CyDye5-dUTP incorporated in the synthesized complementary strand; 3' TTTTT single-stranded linker to array surface; dsDNA, one strand shown.
Outline: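 Using Ni–NTA, transcription factors fused N-terminally to polyhistidine and DsRed were purified after expression in E. coli BL21-CodonPlus. These were incubated at 200 nM with a blocked, double-stranded custom Agilent array for 1 h at 25 °C in a buffer containing 50 µM zinc acetate, and the array was washed. The binding signal is per-feature fluorescence intensity (arbitrary units) on an Axon 4000B scanner.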

Sequence	binding signal
TTCTTGTCTCTTCTCCCTTTCCGCCTCGCCTCGCCTCGCTCGGAGTCACCTAGTGCAG	8390 fluorescence intensity (a.u.)
TTGTGGAGATTACCGTTTCTTATAATATAGTAATTACCGTCGGAGTCACCTAGTGCAG	8110 fluorescence intensity (a.u.)
GCTATCTCTGCAGCTGCAACCAATTGGCATGTGTGTGGCACGGAGTCACCTAGTGCAG	9880 fluorescence intensity (a.u.)
GATGGCATCAACCGCGTCTCTCTCTCTCTCTCTCGCCATCCGGAGTCACCTAGTGCAG	8020 fluorescence intensity (a.u.)
GCAAAATCAAGGTGGCCTATCGGACTCATTCCTCTCCATCCGGAGTCACCTAGTGCAG	8670 fluorescence intensity (a.u.)
TCCGTTCCGTGCTCTGTGTCCCATACTCTACGGCCACGCCCGGAGTCACCTAGTGCAG	10100 fluorescence intensity (a.u.)
CACTTCCTACCAGCATCCAAACATTCTAGCCAGGAACAAACGGAGTCACCTAGTGCAG	8310 fluorescence intensity (a.u.)
AAACTTCTAACTTTTCCATCACATCAAAGCTTTCCTACACCGGAGTCACCTAGTGCAG	8390 fluorescence intensity (a.u.)
ACCCATCATCATTTTCCACATATTTTTTCTTTTCAGCTCCCGGAGTCACCTAGTGCAG	8810 fluorescence intensity (a.u.)
TATTTTAAACTCTCGAGGGGACATTCCCTTGTTGTTTCCTCGGAGTCACCTAGTGCAG	8910 fluorescence intensity (a.u.)
GCGGAGGAGGGCGGGAGGAAGCGGGTGGCGGCGGCGGAGTCGGAGTCACCTAGTGCAG	10900 fluorescence intensity (a.u.)
TAAACCTCCTCTCGTTCTCACCTTTTTGTGCTCCATCTCTCGGAGTCACCTAGTGCAG	9440 fluorescence intensity (a.u.)
GTCCCGTGGCCGGTGCGCCCTTCTTCCCAATTGCGACACCCGGAGTCACCTAGTGCAG	8250 fluorescence intensity (a.u.)
CATGGGAATTGTGCCGGCTGTTTTTTTTCGTTTTCATCAGCGGAGTCACCTAGTGCAG	10200 fluorescence intensity (a.u.)
CAACAAGCGTAACATTCTTTTTTCTTCTCTGAAAGACTGACGGAGTCACCTAGTGCAG	9020 fluorescence intensity (a.u.)
CAACGCATCGTCTTCCTTCTTCGTCGTCGATAGATCGGCTCGGAGTCACCTAGTGCAG	8810 fluorescence intensity (a.u.)
TTTGACTTTAGTCAAAGTCAAACTACTCTAACTTTGACTACGGAGTCACCTAGTGCAG	9840 fluorescence intensity (a.u.)
GCCACCCGCGACCTCGAGCTTCCCTTCTCTCTCTCTCTCTCGGAGTCACCTAGTGCAG	8160 fluorescence intensity (a.u.)
CGCCCCTGACTGTACCAACTTATTTTCATTGACTATGATACGGAGTCACCTAGTGCAG	8710 fluorescence intensity (a.u.)
CTGGTGCTTTCGTCCTACGTACCCTAGCTAGCGGTCCGATCGGAGTCACCTAGTGCAG	10400 fluorescence intensity (a.u.)
TGTTACTTCCAGACATGGTTTAACGCTGTAATTCCTATACCGGAGTCACCTAGTGCAG	8290 fluorescence intensity (a.u.)
TCCCCGCCTTCGTCTCGCCGTCCGTCGCCCTGTTCTGCGCCGGAGTCACCTAGTGCAG	8150 fluorescence intensity (a.u.)
TGCACTTTGGCATTTTGGGGTATGGAAGTTATATACTCTACGGAGTCACCTAGTGCAG	9720 fluorescence intensity (a.u.)
TCTGCATGATTCCTTGGTTTCTTTTTTTACACATTTACTTCGGAGTCACCTAGTGCAG	10500 fluorescence intensity (a.u.)
ATGTCTGGTTTGAATGCATTGGGAGTAAGATGTCCTGGTTCGGAGTCACCTAGTGCAG	8810 fluorescence intensity (a.u.)
ACACAAATACCAATATATTTAATACTCTTACATCCTTCTTCGGAGTCACCTAGTGCAG	8680 fluorescence intensity (a.u.)
GGTATTCTGCATTCTGCACTAACATGGTTGGCCGTCGTCACGGAGTCACCTAGTGCAG	11000 fluorescence intensity (a.u.)

Sequence	binding signal
AAGCTCTACCACGTGCATGCTGCTTCATCACTTCATCTCCCGGAGTCACCTAGTGCAG	8750 fluorescence intensity (a.u.)
CTTCGTTTCTAGAGTAACACGCGGCAACCGCGGAGTTGACCGGAGTCACCTAGTGCAG	8170 fluorescence intensity (a.u.)
TTTTTTTTTCATGTTTGTTTGTGTGTGTGTGTGTGCAGGACGGAGTCACCTAGTGCAG	8780 fluorescence intensity (a.u.)
TGGGTATAGGATATTATGGTTGTTGTTGAATCCTTCGGAACGGAGTCACCTAGTGCAG	9240 fluorescence intensity (a.u.)
GGCTGGGTGTTACAACTTTGTCCAAAACATCAATAATTATCGGAGTCACCTAGTGCAG	8610 fluorescence intensity (a.u.)
ACCATCTCACCTGTCTCATCCAATTCTCTTTTTCCTGTATCGGAGTCACCTAGTGCAG	12200 fluorescence intensity (a.u.)
GGATCCCATTAACACGTGTCACCGTGGCATGCCACGTCATCGGAGTCACCTAGTGCAG	8390 fluorescence intensity (a.u.)
CTCCCTTCTTTTATGGCCAATGTGCGGTTATTTTCGGTTCCGGAGTCACCTAGTGCAG	8390 fluorescence intensity (a.u.)
TCCACAAGTGTCCATGTCCGCCGTGTTATCTACTTCCTTCCGGAGTCACCTAGTGCAG	10900 fluorescence intensity (a.u.)
GTTTTCCGTCTCCGGCCGCCAGGTTTGCTGCCGCGGCCGTCGGAGTCACCTAGTGCAG	9470 fluorescence intensity (a.u.)
TTAACGCCCAATTACGGATAGTGTGGATCAAACTTGAGTTCGGAGTCACCTAGTGCAG	8230 fluorescence intensity (a.u.)
CACCTGTCCCGCTGTCCGCCGCGCCGCCCGGTTCACACGGCGGAGTCACCTAGTGCAG	8300 fluorescence intensity (a.u.)
TTGCTCACCAGAGCTACTACTACCGGTCTGTCACGCTCACCGGAGTCACCTAGTGCAG	9180 fluorescence intensity (a.u.)
GGTGGAGGTGGTGGTGAGATGGAGAGAGAGAAGGTGACGTCGGAGTCACCTAGTGCAG	12900 fluorescence intensity (a.u.)
GTTAGTGTGTGGTTTGTTGCGTGCAGTCAGGTGCACTCGGCGGAGTCACCTAGTGCAG	11000 fluorescence intensity (a.u.)
TCCGACATGCTGCCCTCGATCGAGCTCATCCATCGGCCCTCGGAGTCACCTAGTGCAG	9550 fluorescence intensity (a.u.)
GGCTTTTGGTTTCTTGGTGGTTGTGGATTTTTTTTTTTTGCGGAGTCACCTAGTGCAG	12300 fluorescence intensity (a.u.)
ACACTTCCATACACCGAGTCCACCAACGCCCCTCTCAGGCCGGAGTCACCTAGTGCAG	9410 fluorescence intensity (a.u.)
ACGGTCACCTCCCGTCCCCACGTTTTTCTTTACACCCACGCGGAGTCACCTAGTGCAG	11200 fluorescence intensity (a.u.)
ACGTAAAACACTTAATCTTCATTTTATCTTTATCTTCAGGCGGAGTCACCTAGTGCAG	8490 fluorescence intensity (a.u.)
TCTATTGGCCGTTTCACTTTATCGCCACTTTTTTCAAATTCGGAGTCACCTAGTGCAG	9980 fluorescence intensity (a.u.)
CTAGGAGGAGGATTAGTTCTTGCGCATCGCTTCTGAGCTCCGGAGTCACCTAGTGCAG	8200 fluorescence intensity (a.u.)
CCCACCAGCTAAATAAGACAACTCAACCCTACACGCGCGTCGGAGTCACCTAGTGCAG	9170 fluorescence intensity (a.u.)
CCGGGGTTGCTGGCACACGCGGTGCGGCGCCGCCGTTGACCGGAGTCACCTAGTGCAG	15700 fluorescence intensity (a.u.)
ACGAGACGTCCACCACCATGGATTTCACCTGTTTCTGCGACGGAGTCACCTAGTGCAG	8170 fluorescence intensity (a.u.)
CGGTTTGTGTGAGTTTAGGGGTACATATTTCTGGTTTTATCGGAGTCACCTAGTGCAG	9530 fluorescence intensity (a.u.)
TCTTGCAGTATTTGCATGACTTATACCTGCCTCTGGACTTCGGAGTCACCTAGTGCAG	8110 fluorescence intensity (a.u.)

Four entries picked at random from the list so far:
Sequence	binding signal
CCCACCAGCTAAATAAGACAACTCAACCCTACACGCGCGTCGGAGTCACCTAGTGCAG	9170 fluorescence intensity (a.u.)
ACGAGACGTCCACCACCATGGATTTCACCTGTTTCTGCGACGGAGTCACCTAGTGCAG	8170 fluorescence intensity (a.u.)
TCTTGCAGTATTTGCATGACTTATACCTGCCTCTGGACTTCGGAGTCACCTAGTGCAG	8110 fluorescence intensity (a.u.)
CACCTGTCCCGCTGTCCGCCGCGCCGCCCGGTTCACACGGCGGAGTCACCTAGTGCAG	8300 fluorescence intensity (a.u.)
